Data as given in PubChem BioAssay AID1259405 (NCATS, 2018).

Assay: 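Mouse-designed siRNAs used to find CHO productivity engineering targets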 (primary screen)
System: Chinese hamster CHO-K1 ovary cells with stable secreted eGFP expression
Reagents: single siRNA against mouse genes, 0.8 pmol siRNA per well (2 µl of 400 nM stock)
Timing: 3 days
Detection: 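Per-well intracellular GFP measured by laser scanning cytometry, plus viability from ATP luminescence, each relative to plate median of non-targeting control wells, in %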
Reading the numbers: GFP, % of control: higher = more GFP per well, higher productivity; viability (ATP), % of control: higher = more viable cells (more ATP)
Rule for the call: 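Called active when intracellular GFP, relative to negative control, is at or above 120%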
The deposit covers about 50,000 reagents; below is an unselected part. In the full data, about 4,000 (8%) got an active call. 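Mouse siRNA library applied to hamster cells; one well for each siRNA.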 A number with no mark means an inactive call. Reagents against one gene are numbered here.

The first 7 entries, ahead of the listing:
gene symbol | reagent no. | GFP, % of control | viability (ATP), % of control
Ndufb3 | 1 | 42.6 | 55.3
Ndufb3 | 2 | 49.8 | 43.7
Hacl2 | 1 | 70.3 | 126
Hacl2 | 2 | 67.4 | 69.4
Hacl2 | 3 | 98.7 | 127
Gnai2 | 1 | 115 | 86
Gnai2 | 2 | 138 (active) | 75.2

The listing, from the start:
gene symbol | reagent no. | GFP, % of control | viability (ATP), % of control
Ndufb3 | 1 | 42.6 | 55.3
Ndufb3 | 2 | 49.8 | 43.7
Hacl2 | 1 | 70.3 | 126
Hacl2 | 2 | 67.4 | 69.4
Hacl2 | 3 | 98.7 | 127
Gnai2 | 1 | 115 | 86
Gnai2 | 2 | 138 (active) | 75.2
Gnai2 | 3 | 129 (active) | 47.9
Kif12 | 1 | 90.8 | 61.6
Kif12 | 2 | 96.9 | 36.8
Kitl | 1 | 57.3 | 33.9
Kitl | 2 | 48.6 | 48.5
Kitl | 3 | 82.2 | 115
Dars1 | 1 | 104 | 82.4
Dars1 | 2 | 64.5 | 65.9
Dars1 | 3 | 95 | 91.9
Or10d3 | 1 | 70.9 | 68.1
Or10d3 | 2 | 63.6 | 74.7
Or10d3 | 3 | 53.9 | 55.1
Rplp0 | 1 | 81.8 | 53.3
Rplp0 | 2 | 79.8 | 88
Rplp0 | 3 | 67 | 50.8
Pxmp4 | 1 | 125 (active) | 87.4
Pxmp4 | 2 | 45.7 | 71.2
Pxmp4 | 3 | 56.6 | 78.4
Mrps6 | 1 | 81 | 89.6
Mrps6 | 2 | 45.2 | 88.9
Mrps6 | 3 | 56.1 | 79.1
Krtap19-5 | 1 | 50.9 | 76.9
Krtap19-5 | 2 | 108 | 80.3
Krtap19-5 | 3 | 93.5 | 110
Vash1 | 1 | 73.6 | 70.1
Vash1 | 2 | 81.4 | 75.2
Vash1 | 3 | 133 (active) | 86.3
Ubxn1 | 1 | 59.3 | 70.8
Ubxn1 | 2 | 52.3 | 37.7
Ubxn1 | 3 | 52.5 | 56.2
Gosr1 | 1 | 71.2 | 75.7
Gosr1 | 2 | 41.1 | 43.1
Gosr1 | 3 | 80.4 | 64.8
Ppil4 | 1 | 101 | 91.2
Ppil4 | 2 | 88.5 | 91.1
Ppil4 | 3 | 37.9 | 51.3
Fnta | 1 | 83.9 | 78.6
Fnta | 2 | 74.8 | 76
Fnta | 3 | 45.7 | 36.6
Or8s8 | 1 | 89.4 | 44.3
Or8s8 | 2 | 99 | 84.1
Or8s8 | 3 | 35.1 | 31.2
Pole4 | 1 | 85.8 | 95.9
Pole4 | 2 | 127 (active) | 95.9
Cldn7 | 1 | 66 | 62.6
Cldn7 | 2 | 62 | 64.6
Cldn7 | 3 | 101 | 119
Slc39a11 | 1 | 99.5 | 125
Slc39a11 | 2 | 86.4 | 78.1
Slc39a11 | 3 | 76.1 | 81.3
Copg1 | 1 | 136 (active) | 79.7
Copg1 | 2 | 69.4 | 47.6
Copg1 | 3 | 78.9 | 71
Adamts4 | 1 | 40.4 | 72.6
Adamts4 | 2 | 85.5 | 59.6
Adamts4 | 3 | 61.4 | 53.3
Kif18a | 1 | 115 | 65.3
Kif18a | 2 | 86 | 92.7
Fcrla | 1 | 85.6 | 65.8
Fcrla | 2 | 83 | 67.5
Fcrla | 3 | 78.9 | 71.3
Rabl2 | 1 | 129 (active) | 79.8
Rabl2 | 2 | 76.8 | 68.9
Rabl2 | 3 | 58.2 | 27.7
Insrr | 1 | 137 (active) | 93.5
Arl2 | 1 | 116 | 82.2
Arl2 | 2 | 75.4 | 73.2
Arl2 | 3 | 102 | 76.6
Tspo | 1 | 76.5 | 70
Tspo | 2 | 79.7 | 72.7
Tspo | 3 | 62.9 | 84
Tex13c3 | 1 | 58.3 | 63.7
Tex13c3 | 2 | 71.1 | 73.8
Tex13c3 | 3 | 75.2 | 51.6
Mindy2 | 1 | 73.9 | 78.3
Mindy2 | 2 | 75.3 | 76.9
Mindy2 | 3 | 62.9 | 61.8
